No constants are given. Whether binding was seen depends on the method and setting. Binding seen in cells or lysates may run through a third protein. Here binding means that the protein was enriched with, or labelled near, the bait; the list need not be complete. No binding means not detected with the bait. One block for each molecule: values may come before it.
Target: RPN11/PSMD14 with an endogenous biotin-TEV purification handle (human (endogenous in HCT116)) (UniProt O00487)
Assay: affinity purification with mass spectrometry; HCT116 cells with biotin-TEV handle on RPN1, RPN11 or PSMB4, crosslinked in situ (4.4 mM SDA 25 min, 365 nm UV 10 s); lysate on streptavidin beads 2 h 4°C, on-bead digestion, label-free quantification against wild-type HCT116

Protein sequences, listed by entry. Tags and fused reporters are not part of them.
UniProt O00487: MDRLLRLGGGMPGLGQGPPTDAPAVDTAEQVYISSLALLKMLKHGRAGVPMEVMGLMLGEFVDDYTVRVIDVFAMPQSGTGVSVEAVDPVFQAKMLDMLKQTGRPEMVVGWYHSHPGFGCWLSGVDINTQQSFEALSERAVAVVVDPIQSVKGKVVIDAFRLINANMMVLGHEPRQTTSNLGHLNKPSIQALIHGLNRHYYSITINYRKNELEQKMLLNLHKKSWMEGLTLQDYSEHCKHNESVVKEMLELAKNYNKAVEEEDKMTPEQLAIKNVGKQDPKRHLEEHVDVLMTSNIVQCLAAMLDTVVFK
UniProt Q9Y244: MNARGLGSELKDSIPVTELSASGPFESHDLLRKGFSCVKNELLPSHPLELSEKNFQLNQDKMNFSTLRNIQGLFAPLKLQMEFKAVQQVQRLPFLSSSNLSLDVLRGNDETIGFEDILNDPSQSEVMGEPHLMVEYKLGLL

binding: no binding
Molecule: POMP (from UniProt Q9Y244 1-141)

binding: no binding
B1: PSMG2 (protein, UniProt Q969U7 1-264)
chain: MFVPCGESAPDLAGFTLLMPAVSVGNVGQLAMDLIISTLNMSKIGYFYTDCLVPMVGNNPYATTEGNSTELSINAEVYSLPSRKLVALQLRSIFIKYKSKPFCEKLLSWVKSSGCARVIVLSSSHSYQRNDLQLRSTPFRYLLTPSMQKSVQNKIKSLNWEEMEKSRCIPEIDDSEFCIRIPGGGITKTLYDESCSKEIQMAVLLKFVSEGDNIPDALGLVEYLNEWLQILKPLSDDPTVSASRWKIPSSWRLLFGSGLPPALF

binding: no binding
B2: PSMG1 (protein, UniProt O95456 1-288)
chain: MAATFFGEVVKAPCRAGTEDEEEEEEGRRETPEDREVRLQLARKREVRLLRRQTKTSLEVSLLEKYPCSKFIIAIGNNAVAFLSSFVMNSGVWEEVGCAKLWNEWCRTTDTTHLSSTEAFCVFYHLKSNPSVFLCQCSCYVAEDQQYQWLEKVFGSCPRKNMQITILTCRHVTDYKTSESTGSLPSPFLRALKTQNFKDSACCPLLEQPNIVHDLPAAVLSYCQVWKIPAILYLCYTDVMKLDLITVEAFKPILSTRSLKGLVKNIPQSTEILKKLMTTNEIQSNIYT

Reference: PMC13580404 (Molecular cell, 2026)
